Results: patent publication US20170189504A1, “NOVEL PEPTIDES AND COMBINATION OF PEPTIDES FOR USE IN IMMUNOTHERAPY AGAINST VARIOUS CANCERS” (immatics biotechnologies GmbH, priority 2015, published 2017)
For part of these data: For expression read-outs the peptide stands for its source gene, whose mRNA was measured; the gene is not named for every peptide.

Columns and labels:
source genes (mRNA) [1] = assay: Expression profiling of source genes by in-house RNASeq of tumor and normal tissues (Table 18, FIG. 2); parameters: species or system human; key: very highly over-expressed in tumors compared to a panel of normal tissues (+++); highly over-expressed in tumors compared to a panel of normal tissues (++); over-expressed in tumors compared to a panel of normal tissues (+); conditions: source gene of peptide
HLA-A*02 = assay: Identification and relative LC-MS quantitation of HLA-A*02-presented tumor-associated peptides on tissue samples (presentation profiles, Tables 13A, 13B, 15, FIG. 1); parameters: species or system human; key to Presentation score NHL / Presentation score CLL / Presentation score BRCA / Presentation score AML / Presentation score GB / Presentation score NSCLC / Presentation score GBC_CCC / Presentation score UEC / Presentation score MEL / Presentation score OSCAR / Presentation score GC / Presentation score UBC / Presentation score OC / Presentation score RCC / Presentation score CRC / Presentation score PCA / Presentation score HCC / Presentation score PC / Presentation score SCLC: specifically presented on tumors (++++); very highly over-presented on tumors compared to a panel of normal tissues (+++); highly over-presented on tumors compared to a panel of normal tissues (++); over-presented on tumors compared to a panel of normal tissues (+); conditions: for Presentation score NHL: non-Hodgkin lymphoma (N = 18) vs panel of normal tissues (N = 262); for Peptide Presentation on cancer entities: HLA-A*02-binding tumor-associated peptides
source genes (mRNA) [2] = assay: Gene and exon expression of source genes, TCGA tumor samples compared with normal tissue samples (Lonsdale, 2013) (Table 17); parameters: species or system human; conditions: for Target coverage: over-expression category of source gene, LAML: Acute Myeloid Leukemia (N = 173); for Target coverage: over-expression category of source gene, BLCA: Bladder urothelial carcinoma (N = 408); for Target coverage: over-expression category of source gene, BRCA: Breast cancer (N = 1104), cutoff more than 2-fold above highest 75% percentile of high and medium risk normal tissue samples; for Target coverage: over-expression category of source gene, CHOL: Cholangiocarcinoma (N = 36); for Target coverage: over-expression category of source gene, READ: Colon and rectal adenocarcinoma (N = 167); for Target coverage: over-expression category of source gene, COAD: Colon and rectal adenocarcinoma (N = 462); for Target coverage: over-expression category of source gene, ESCA: Esophageal cancer (N = 185); for Target coverage: over-expression category of source gene, GBM: Glioblastoma multiforme (N = 169); for Target coverage: over-expression category of source gene, KICH: Kidney chromophobe (N = 66); for Target coverage: over-expression category of source gene, LIHC: Liver hepatocellular carcinoma (N = 374); for Target coverage: over-expression category of source gene, LGG: Lower grade glioma (N = 534); for Target coverage: over-expression category of source gene, LUAD: Lung adenocarcinoma (N = 517); for Target coverage: over-expression category of source gene, LUSC: Lung squamous cell carcinoma (N = 503); for Target coverage: over-expression category of source gene, DLBC: Lymphoid neoplasm diffuse large B-cell lymphoma (N = 48); for Target coverage: over-expression category of source gene, OV: Ovarian serous cystadenocarcinoma (N = 309); for Target coverage: over-expression category of source gene, SKCM: Skin cutaneous melanoma (N = 473); for Target coverage: over-expression category of source gene, STAD: Stomach adenocarcinoma (N = 415); for Target coverage: over-expression category of source gene, UCEC: Uterine corpus endometrial carcinoma (N = 546)
[3] = Table 13A, cancer entities on which the peptide was found presented
[4] = Table 13B, presentation on additional cancer entities
[5] = cutoff more than 2-fold above highest 75% percentile of normal tissue samples

Row | Substance | Presentation score NHL (HLA-A*02; HLA-A*02 peptides) | Peptide Presentation on cancer entities (HLA-A*02; [3]) | Peptide Presentation on cancer entities (HLA-A*02; [4]) | Target coverage: over-expression category of source gene, LAML (source genes (mRNA) [2]; [5]) | Target coverage: over-expression category of source gene, BLCA (source genes (mRNA) [2]; [5]) | Target coverage: over-expression category of source gene, BRCA (source genes (mRNA) [2]) | Target coverage: over-expression category of source gene, CHOL (source genes (mRNA) [2]; [5]) | Target coverage: over-expression category of source gene, READ (source genes (mRNA) [2]; [5]) | Target coverage: over-expression category of source gene, COAD (source genes (mRNA) [2]; [5]) | Target coverage: over-expression category of source gene, ESCA (source genes (mRNA) [2]; [5]) | Target coverage: over-expression category of source gene, GBM (source genes (mRNA) [2]; [5]) | Target coverage: over-expression category of source gene, KICH (source genes (mRNA) [2]; [5]) | Target coverage: over-expression category of source gene, LIHC (source genes (mRNA) [2]; [5]) | Target coverage: over-expression category of source gene, LGG (source genes (mRNA) [2]; [5]) | Target coverage: over-expression category of source gene, LUAD (source genes (mRNA) [2]; [5]) | Target coverage: over-expression category of source gene, LUSC (source genes (mRNA) [2]; [5]) | Target coverage: over-expression category of source gene, DLBC (source genes (mRNA) [2]; [5]) | Target coverage: over-expression category of source gene, OV (source genes (mRNA) [2]; [5]) | Target coverage: over-expression category of source gene, SKCM (source genes (mRNA) [2]; [5]) | Target coverage: over-expression category of source gene, STAD (source genes (mRNA) [2]; [5]) | also measured
1 | 54: peptide found in FAM114A2 (gene looked up) (VLNPLITAV; listed as Homo sapiens) [compound 54] | +++ | NSCLC, PCA, AML, NHL | HCC, SCLC, UEC, MEL, RCC | A (>=50% of tumors above the cutoff) | B (>= 20% of tumors above the cutoff, but <50%) | A (>=50% of tumors above the cutoff) | A (>=50% of tumors above the cutoff) | B (>= 20% of tumors above the cutoff, but <50%) | B (>= 20% of tumors above the cutoff, but <50%) | B (>= 20% of tumors above the cutoff, but <50%) | A (>=50% of tumors above the cutoff) | A (>=50% of tumors above the cutoff) | B (>= 20% of tumors above the cutoff, but <50%) | A (>=50% of tumors above the cutoff) | A (>=50% of tumors above the cutoff) | B (>= 20% of tumors above the cutoff, but <50%) | A (>=50% of tumors above the cutoff) | B (>= 20% of tumors above the cutoff, but <50%) | A (>=50% of tumors above the cutoff) | B (>= 20% of tumors above the cutoff, but <50%) | Expression score RCC (source genes (mRNA) [1]; renal cell carcinoma (N = 10) vs panel of normal tissues): +; Presentation score AML (HLA-A*02; HLA-A*02 peptides, acute myeloid leukemia (N = 18) vs panel of normal tissues (N = 262)): +++; Presentation score NSCLC (HLA-A*02; HLA-A*02 peptides, non-small cell lung cancer (N = 90) vs panel of normal tissues (N = 262)): +++; Presentation score PCA (HLA-A*02; HLA-A*02 peptides, prostate cancer and benign prostate hyperplasia (N = 39) vs panel of normal tissues (N = 262)): +++; Target coverage: over-expression category of source gene, KIRC (source genes (mRNA) [2]; Clear cell kidney carcinoma (N = 534), cutoff more than 2-fold above highest 75% percentile of normal tissue samples): A (>=50% of tumors above the cutoff); Target coverage: over-expression category of source gene, PAAD (source genes (mRNA) [2]; Pancreatic ductal adenocarcinoma (N = 179), cutoff more than 2-fold above highest 75% percentile of normal tissue samples): A (>=50% of tumors above the cutoff); Target coverage: over-expression category of source gene, KIRP (source genes (mRNA) [2]; Papillary kidney carcinoma (N = 291), cutoff more than 2-fold above highest 75% percentile of normal tissue samples): A (>=50% of tumors above the cutoff); Target coverage: over-expression category of source gene, PRAD (source genes (mRNA) [2]; Prostate adenocarcinoma (N = 498), cutoff more than 2-fold above highest 75% percentile of normal tissue samples): A (>=50% of tumors above the cutoff); Target coverage: over-expression category of source gene, UCEC (source genes (mRNA) [2]; [5]): B (>= 20% of tumors above the cutoff, but <50%)
2 | 116: peptide found in RACGAP1 (gene looked up) (TIDESGSIL; listed as Homo sapiens) [compound 116] | ++++ | UBC, NHL | MEL, AML | A (>=50% of tumors above the cutoff) | A (>=50% of tumors above the cutoff) | A (>=50% of tumors above the cutoff) | C (>=5% of tumors above the cutoff, but <20%) | A (>=50% of tumors above the cutoff) | A (>=50% of tumors above the cutoff) | A (>=50% of tumors above the cutoff) | A (>=50% of tumors above the cutoff) | C (>=5% of tumors above the cutoff, but <20%) | C (>=5% of tumors above the cutoff, but <20%) | C (>=5% of tumors above the cutoff, but <20%) | B (>= 20% of tumors above the cutoff, but <50%) | A (>=50% of tumors above the cutoff) | A (>=50% of tumors above the cutoff) | A (>=50% of tumors above the cutoff) | A (>=50% of tumors above the cutoff) | A (>=50% of tumors above the cutoff) | Expression score BRCA (source genes (mRNA) [1]; BRCA tumors vs panel of normal tissues): +; Expression score CRC (source genes (mRNA) [1]; colorectal cancer (N = 20) vs panel of normal tissues): +; Expression score OSCAR (source genes (mRNA) [1]; esophageal cancer incl. gastric-esophageal junction (N = 11) vs panel of normal tissues): +; Expression score GB (source genes (mRNA) [1]; glioblastoma (N = 24) vs panel of normal tissues): +; Expression score NHL (source genes (mRNA) [1]; non-Hodgkin lymphoma (N = 10) vs panel of normal tissues): +; Expression score NSCLC (source genes (mRNA) [1]; non-small cell lung cancer (N = 11) vs panel of normal tissues): ++; Expression score OC (source genes (mRNA) [1]; ovarian cancer (N = 12) vs panel of normal tissues): +; Expression score SCLC (source genes (mRNA) [1]; small cell lung cancer (N = 10) vs panel of normal tissues): ++; Expression score UBC (source genes (mRNA) [1]; urinary bladder cancer (N = 10) vs panel of normal tissues): +; Presentation score UBC (HLA-A*02; HLA-A*02 peptides, urinary bladder cancer (N = 16) vs panel of normal tissues (N = 262)): ++++; Target coverage: over-expression category of source gene, UCEC (source genes (mRNA) [2]; [5]): B (>= 20% of tumors above the cutoff, but <50%)
